According to paper PMC8948670:
These are yes or no findings as the source states them, for the method shown. Binding seen in cells or lysates may run through a third protein. Some binding calls cover weakened binding; strength is not graded here.

Sequences of proteins named here, by UniProt entry; tags and fusion partners are left off.
UniProt Q00944: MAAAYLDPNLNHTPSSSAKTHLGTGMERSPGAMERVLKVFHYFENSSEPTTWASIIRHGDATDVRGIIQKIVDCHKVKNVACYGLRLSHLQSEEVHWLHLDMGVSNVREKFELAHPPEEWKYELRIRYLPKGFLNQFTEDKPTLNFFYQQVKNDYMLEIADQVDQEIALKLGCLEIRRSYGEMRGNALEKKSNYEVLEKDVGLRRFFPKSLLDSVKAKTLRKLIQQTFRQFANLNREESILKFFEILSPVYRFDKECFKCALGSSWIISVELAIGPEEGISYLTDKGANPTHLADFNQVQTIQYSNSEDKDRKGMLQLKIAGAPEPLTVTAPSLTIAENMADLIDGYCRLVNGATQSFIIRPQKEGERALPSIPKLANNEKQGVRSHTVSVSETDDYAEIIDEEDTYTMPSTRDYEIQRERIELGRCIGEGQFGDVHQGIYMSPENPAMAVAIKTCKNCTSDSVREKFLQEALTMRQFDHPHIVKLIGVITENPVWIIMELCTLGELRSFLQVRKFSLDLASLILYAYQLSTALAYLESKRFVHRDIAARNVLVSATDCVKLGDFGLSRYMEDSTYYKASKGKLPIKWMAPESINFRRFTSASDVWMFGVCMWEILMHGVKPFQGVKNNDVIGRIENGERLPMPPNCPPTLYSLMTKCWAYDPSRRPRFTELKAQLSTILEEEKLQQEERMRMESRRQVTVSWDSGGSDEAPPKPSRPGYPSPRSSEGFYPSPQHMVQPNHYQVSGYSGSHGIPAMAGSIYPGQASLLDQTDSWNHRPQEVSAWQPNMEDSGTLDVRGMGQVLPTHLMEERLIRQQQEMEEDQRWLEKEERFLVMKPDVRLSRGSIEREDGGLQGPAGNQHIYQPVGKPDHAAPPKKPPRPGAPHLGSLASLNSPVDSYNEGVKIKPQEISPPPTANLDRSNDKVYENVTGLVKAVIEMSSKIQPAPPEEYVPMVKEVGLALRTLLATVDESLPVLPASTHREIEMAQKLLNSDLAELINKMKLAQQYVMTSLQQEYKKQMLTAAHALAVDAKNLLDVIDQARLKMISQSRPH
UniProt O00443: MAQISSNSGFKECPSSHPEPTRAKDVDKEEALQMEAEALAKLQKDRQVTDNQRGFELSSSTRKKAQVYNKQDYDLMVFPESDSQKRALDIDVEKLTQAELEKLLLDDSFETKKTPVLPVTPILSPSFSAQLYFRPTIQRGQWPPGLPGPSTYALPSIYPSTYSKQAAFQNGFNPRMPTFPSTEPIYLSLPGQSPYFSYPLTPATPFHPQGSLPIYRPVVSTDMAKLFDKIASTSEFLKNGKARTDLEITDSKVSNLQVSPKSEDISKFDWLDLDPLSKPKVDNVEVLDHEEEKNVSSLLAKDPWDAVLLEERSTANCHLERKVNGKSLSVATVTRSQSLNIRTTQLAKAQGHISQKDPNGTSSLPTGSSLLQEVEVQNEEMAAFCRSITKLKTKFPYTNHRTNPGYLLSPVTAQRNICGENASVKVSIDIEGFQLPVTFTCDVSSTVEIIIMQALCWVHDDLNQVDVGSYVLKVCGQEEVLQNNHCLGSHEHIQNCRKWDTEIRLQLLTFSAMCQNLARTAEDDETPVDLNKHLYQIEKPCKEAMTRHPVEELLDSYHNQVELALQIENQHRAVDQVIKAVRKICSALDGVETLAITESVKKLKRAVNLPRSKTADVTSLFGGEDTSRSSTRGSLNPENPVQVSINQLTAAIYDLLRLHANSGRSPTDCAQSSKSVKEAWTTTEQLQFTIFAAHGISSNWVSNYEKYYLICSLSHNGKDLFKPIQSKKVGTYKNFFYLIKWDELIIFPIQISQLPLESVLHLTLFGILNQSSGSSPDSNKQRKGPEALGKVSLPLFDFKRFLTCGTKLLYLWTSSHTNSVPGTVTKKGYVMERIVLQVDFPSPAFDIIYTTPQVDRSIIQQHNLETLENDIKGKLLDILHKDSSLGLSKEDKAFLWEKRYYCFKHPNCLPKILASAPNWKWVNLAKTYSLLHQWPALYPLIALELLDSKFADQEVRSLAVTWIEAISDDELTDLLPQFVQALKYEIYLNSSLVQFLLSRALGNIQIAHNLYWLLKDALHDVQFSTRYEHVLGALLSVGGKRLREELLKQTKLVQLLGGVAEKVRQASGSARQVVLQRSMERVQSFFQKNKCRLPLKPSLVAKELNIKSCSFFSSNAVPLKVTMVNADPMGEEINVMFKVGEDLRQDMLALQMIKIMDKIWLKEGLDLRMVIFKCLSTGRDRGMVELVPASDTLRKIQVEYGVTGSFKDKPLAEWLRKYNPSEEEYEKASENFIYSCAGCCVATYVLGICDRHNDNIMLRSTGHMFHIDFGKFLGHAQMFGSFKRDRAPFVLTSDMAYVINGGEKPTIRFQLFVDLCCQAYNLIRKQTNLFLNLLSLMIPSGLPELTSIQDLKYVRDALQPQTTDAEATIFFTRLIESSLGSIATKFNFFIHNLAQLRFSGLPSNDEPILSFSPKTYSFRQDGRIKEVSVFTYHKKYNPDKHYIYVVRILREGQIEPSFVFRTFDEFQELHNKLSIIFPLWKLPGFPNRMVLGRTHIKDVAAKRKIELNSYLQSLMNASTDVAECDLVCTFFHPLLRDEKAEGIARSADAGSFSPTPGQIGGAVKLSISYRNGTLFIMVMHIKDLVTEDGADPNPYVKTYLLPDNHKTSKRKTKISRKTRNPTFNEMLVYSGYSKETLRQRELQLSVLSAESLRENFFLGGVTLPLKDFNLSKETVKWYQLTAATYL

Biological target: HA‐FAK (UniProt Q00944)
Assay: co-IP; HEK293T cells transfected with HA‐FAK and GFP‐PI3KC2α (WT, HBD or HBD deleted); HA‐FAK immunoprecipitated with anti HA antibody and protein G‐Sepharose, bound proteins blotted with anti GFP or anti HA; lysis in 50 mM Tris‐HCl, 150 mM NaCl, 1% NP‐40, 1 mM EDTA, 10% glycerol; 4 °C

## GFP‐PI3KC2α (full length) (from UniProt O00443 1-1686) (enzyme)
  binding: binds
